# PubChem BioAssay AID306 (DTP/NCI, 2004)
# The list shows only some results of the screen, not a fair sample: it gathers some chemical classes. Not every dose and run of a compound is shown. T/C: endpoint of the treated group in % of that of the vehicle group. Some doses have a count of surviving animals in place of a T/C: the source holds a T/C of zero for them, seemingly a mark for toxic or unscored doses. Some doses without a T/C left all or most animals alive at the check, yet need not have been tolerated: the source hardly ever lists a survival T/C far under the control, and the zero likely stands for such cases as well. Survivors were counted at the toxicity check, usually on the fifth day, unless a day is given; later deaths do not show. Schedules are NCI's codes, read here as Q, the interval in days (D) or hours (H), X, the number of doses. Some schedule codes hold Z or #, which are not explained here. Where survival is the endpoint, this PubChem deposit counts one and a half times the control or more as active, and values a quarter to a half above the control carry no call in these data; other NCI protocols may use other cut-offs. Brackets with × give the number of equal values in this list. Some entries hold several experiments; the results are listed from low to high. Some T/C values are followed by the survivors on the day toxicity was checked, most often the fifth; without a count or a note in brackets, all were alive then.
# Test system: BDF1 mice, L1210 Methyl-GAG-resistant leukemia, survival T/C
# Experiment: NCI In Vivo Anticancer Drug Screen. Data for tumor model L1210 Leukemia resistant to Methyl-GAG; NSC 32946 (subcutaneous) in B6D2F1 (BDF1) mice
# Conditions: T/C endpoint: mean survival time, schedule: Q01DX Z (ip), higher T/C = longer survival
# Experimental: The antitumor activity of compounds was measured in mice bearing transplantable tumors. Survival or tumor size were measured and the results are expressed as the measurement made in the treated group (T) divided by the measurement made in the vehicle treated control group (C). The tumor model used in this assay is L1210 Leukemia resistant to Methyl-GAG; NSC 32946 (subcutaneous) in B6D2F1 (BDF1) mice
smiles,measurement,setting,value
CC[C@H](C)[C@@H]1NC(=O)/C(=C(\C)O)C1=O,T/C,"dose: 3.1 mg/kg/injection, vehicle: water",101 % of control
same,T/C,"dose: 6.25 mg/kg/injection, vehicle: water",103 % of control (2×)
same,T/C,"dose: 12.5 mg/kg/injection, vehicle: water",100 and 103 % of control
same,T/C,"dose: 25.0 mg/kg/injection, vehicle: water",105 and 106 % of control
same,T/C,"dose: 50.0 mg/kg/injection, vehicle: water",93 % of control [4 of 6 alive]
Cc1[nH]c(=O)[nH]c(=O)c1N(CCCl)CCCl,T/C,"dose: 0.25 mg/kg/injection, vehicle: carboxymethylcellulose (CMC)",100 % of control
same,T/C,"dose: 0.5 mg/kg/injection, vehicle: carboxymethylcellulose (CMC)",107 % of control
same,T/C,"dose: 1.0 mg/kg/injection, vehicle: carboxymethylcellulose (CMC)",108 % of control
same,T/C,"dose: 2.0 mg/kg/injection, vehicle: carboxymethylcellulose (CMC)",118 % of control
same,survivor count,"dose: 4.0 mg/kg/injection, vehicle: carboxymethylcellulose (CMC)",6 of 6
same,survivor count,"dose: 8.0 mg/kg/injection, vehicle: carboxymethylcellulose (CMC)",2 of 6
same,survivor count,"dose: 16.0 mg/kg/injection, vehicle: carboxymethylcellulose (CMC)",0 of 6
OC(CNCCCl)C(O)C(O)C(O)CNCCCl (stereo not given),T/C,"dose: 12.5 mg/kg/injection, vehicle: saline",100 % of control
same,T/C,"dose: 25.0 mg/kg/injection, vehicle: saline",108 % of control
same,T/C,"dose: 50.0 mg/kg/injection, vehicle: saline",102 % of control [5 of 6 alive]
same,survivor count,"dose: 100.0 mg/kg/injection, vehicle: saline",6 of 6
CN(N=O)C(=N)N[N+](=O)[O-],T/C,"dose: 9.4 mg/kg/injection, vehicle: carboxymethylcellulose (CMC)",93 % of control
same,T/C,"dose: 18.75 mg/kg/injection, vehicle: carboxymethylcellulose (CMC)",91 % of control
same,T/C,"dose: 37.5 mg/kg/injection, vehicle: carboxymethylcellulose (CMC)",95 % of control
same,survivor count,"dose: 75.0 mg/kg/injection, vehicle: carboxymethylcellulose (CMC)",0 of 6
